In PMC9676655:
Results are given in words; binding and its absence hold for the method and conditions named. In cells and extracts the contact can be indirect. Some binding calls cover weakened binding; strength is not graded here. For some of these results: Tags and fused reporters may be left off the sequences shown.

The chains behind the UniProt entries cited, without tags or fusion partners.
UniProt Q6MG49: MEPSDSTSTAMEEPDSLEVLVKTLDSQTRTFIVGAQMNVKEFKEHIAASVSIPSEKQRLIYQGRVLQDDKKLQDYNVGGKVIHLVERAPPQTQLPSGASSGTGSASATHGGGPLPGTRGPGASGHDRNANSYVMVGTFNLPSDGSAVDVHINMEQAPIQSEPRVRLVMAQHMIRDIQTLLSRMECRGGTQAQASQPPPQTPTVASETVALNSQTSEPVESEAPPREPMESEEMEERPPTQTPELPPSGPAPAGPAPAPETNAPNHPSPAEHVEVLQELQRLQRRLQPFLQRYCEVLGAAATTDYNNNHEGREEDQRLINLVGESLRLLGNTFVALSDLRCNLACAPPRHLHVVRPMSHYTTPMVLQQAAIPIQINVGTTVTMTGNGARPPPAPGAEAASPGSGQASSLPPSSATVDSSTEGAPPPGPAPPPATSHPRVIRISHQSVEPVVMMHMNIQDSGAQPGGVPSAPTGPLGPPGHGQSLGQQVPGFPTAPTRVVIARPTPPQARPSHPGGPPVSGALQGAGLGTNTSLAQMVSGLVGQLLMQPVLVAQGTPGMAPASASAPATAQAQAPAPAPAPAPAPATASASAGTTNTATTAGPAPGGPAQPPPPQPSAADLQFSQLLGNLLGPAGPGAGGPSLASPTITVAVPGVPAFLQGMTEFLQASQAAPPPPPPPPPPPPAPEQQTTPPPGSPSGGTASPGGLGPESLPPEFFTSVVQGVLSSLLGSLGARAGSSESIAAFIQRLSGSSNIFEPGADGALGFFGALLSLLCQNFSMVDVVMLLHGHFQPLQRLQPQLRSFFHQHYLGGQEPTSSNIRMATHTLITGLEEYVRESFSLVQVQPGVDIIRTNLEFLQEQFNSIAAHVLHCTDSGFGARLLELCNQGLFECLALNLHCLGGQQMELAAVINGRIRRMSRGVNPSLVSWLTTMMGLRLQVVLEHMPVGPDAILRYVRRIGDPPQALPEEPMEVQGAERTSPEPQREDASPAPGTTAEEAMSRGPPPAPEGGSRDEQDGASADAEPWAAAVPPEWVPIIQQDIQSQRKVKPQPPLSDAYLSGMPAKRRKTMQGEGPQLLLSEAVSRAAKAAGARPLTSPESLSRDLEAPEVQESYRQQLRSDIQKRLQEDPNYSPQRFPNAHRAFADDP
UniProt O08629: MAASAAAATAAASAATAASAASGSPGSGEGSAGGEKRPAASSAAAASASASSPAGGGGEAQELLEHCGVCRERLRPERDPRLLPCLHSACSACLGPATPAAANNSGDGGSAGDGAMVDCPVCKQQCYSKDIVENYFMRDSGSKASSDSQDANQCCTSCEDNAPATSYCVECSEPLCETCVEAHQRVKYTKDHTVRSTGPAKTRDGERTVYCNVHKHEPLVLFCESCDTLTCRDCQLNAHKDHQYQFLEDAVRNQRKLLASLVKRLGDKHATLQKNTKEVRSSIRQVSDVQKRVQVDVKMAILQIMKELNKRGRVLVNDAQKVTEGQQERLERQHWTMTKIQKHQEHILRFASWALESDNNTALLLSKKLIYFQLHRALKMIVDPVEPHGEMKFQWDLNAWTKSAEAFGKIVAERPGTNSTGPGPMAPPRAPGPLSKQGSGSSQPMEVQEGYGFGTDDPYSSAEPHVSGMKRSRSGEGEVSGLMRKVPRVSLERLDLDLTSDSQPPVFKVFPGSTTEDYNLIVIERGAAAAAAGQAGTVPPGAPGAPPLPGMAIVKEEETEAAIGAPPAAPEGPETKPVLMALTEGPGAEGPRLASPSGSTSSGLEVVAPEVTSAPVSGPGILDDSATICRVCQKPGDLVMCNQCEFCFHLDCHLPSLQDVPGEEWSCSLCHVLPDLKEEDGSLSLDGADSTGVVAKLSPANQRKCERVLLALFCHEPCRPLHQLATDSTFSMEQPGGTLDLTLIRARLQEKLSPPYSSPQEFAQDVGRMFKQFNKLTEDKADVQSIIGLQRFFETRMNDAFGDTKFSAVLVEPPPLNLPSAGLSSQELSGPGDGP
UniProt Q8R560: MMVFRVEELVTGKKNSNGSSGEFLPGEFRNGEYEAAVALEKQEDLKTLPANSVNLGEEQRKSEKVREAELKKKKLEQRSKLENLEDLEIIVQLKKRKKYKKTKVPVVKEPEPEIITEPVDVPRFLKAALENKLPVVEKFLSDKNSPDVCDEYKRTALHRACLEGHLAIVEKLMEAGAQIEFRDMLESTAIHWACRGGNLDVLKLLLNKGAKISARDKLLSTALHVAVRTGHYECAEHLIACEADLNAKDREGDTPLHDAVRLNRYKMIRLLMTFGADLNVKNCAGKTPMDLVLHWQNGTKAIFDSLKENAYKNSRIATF

T1: C-terminal Flag tagged PERM1 (PERM1-Flag) (UniProt Q149B8)
T1 sequence: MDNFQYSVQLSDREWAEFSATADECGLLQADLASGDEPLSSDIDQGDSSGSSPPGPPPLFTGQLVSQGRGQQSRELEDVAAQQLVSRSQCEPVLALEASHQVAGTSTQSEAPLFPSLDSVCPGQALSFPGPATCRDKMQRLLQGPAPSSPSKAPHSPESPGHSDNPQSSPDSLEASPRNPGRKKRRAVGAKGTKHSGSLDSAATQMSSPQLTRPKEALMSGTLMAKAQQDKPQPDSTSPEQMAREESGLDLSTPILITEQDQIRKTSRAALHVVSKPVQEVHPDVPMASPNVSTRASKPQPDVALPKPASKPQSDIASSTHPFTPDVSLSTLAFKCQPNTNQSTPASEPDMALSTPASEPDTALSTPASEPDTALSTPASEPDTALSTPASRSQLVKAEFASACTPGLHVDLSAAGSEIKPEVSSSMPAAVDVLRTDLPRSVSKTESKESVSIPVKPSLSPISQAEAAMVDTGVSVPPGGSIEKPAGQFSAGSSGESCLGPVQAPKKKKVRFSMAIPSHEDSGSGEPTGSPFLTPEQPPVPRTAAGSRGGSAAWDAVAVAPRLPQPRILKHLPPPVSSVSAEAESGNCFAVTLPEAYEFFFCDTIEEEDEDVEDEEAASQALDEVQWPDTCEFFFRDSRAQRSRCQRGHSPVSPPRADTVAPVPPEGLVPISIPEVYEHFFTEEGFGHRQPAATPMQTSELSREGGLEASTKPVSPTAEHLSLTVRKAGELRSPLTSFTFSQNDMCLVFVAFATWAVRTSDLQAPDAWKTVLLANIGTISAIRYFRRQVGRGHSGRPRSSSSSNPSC

T2: PERM1 (PGC-1-, ERR-induced regulator, muscle 1) (mouse (endogenous in mouse heart)) (UniProt Q149B8)
T2 sequence: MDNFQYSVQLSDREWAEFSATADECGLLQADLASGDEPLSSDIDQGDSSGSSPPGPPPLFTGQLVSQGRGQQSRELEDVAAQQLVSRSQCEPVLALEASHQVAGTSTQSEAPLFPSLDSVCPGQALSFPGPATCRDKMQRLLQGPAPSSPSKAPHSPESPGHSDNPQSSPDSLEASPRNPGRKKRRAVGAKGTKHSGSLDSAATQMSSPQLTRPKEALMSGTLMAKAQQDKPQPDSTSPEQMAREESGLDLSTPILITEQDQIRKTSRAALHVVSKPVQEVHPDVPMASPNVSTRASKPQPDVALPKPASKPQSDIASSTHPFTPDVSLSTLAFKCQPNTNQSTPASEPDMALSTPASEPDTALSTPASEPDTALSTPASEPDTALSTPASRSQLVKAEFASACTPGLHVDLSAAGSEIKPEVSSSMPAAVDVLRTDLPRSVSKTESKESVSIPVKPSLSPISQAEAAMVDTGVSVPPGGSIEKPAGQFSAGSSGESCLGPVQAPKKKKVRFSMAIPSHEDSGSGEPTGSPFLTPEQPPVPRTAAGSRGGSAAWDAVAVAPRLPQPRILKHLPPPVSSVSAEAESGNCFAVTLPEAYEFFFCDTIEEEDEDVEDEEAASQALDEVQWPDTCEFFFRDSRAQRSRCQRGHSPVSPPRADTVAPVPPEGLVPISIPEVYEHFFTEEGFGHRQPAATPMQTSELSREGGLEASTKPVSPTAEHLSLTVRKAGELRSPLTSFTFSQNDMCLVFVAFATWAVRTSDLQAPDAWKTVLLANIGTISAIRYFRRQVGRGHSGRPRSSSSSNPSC


target: T1, C-terminal Flag tagged PERM1 (PERM1-Flag); experiment: co-IP; adenovirus PERM1-Flag transduced into cardiomyocytes; pulled down by anti-Flag antibody; immunoblot of endogenous partners

Row | Molecule | binding
1 | BLC2-associated anthanogene-6 (BAG6) (from UniProt Q6MG49 1-1146) | binds
2 | ERRα (endogenous in rat cardiomyocytes) (protein, UniProt Q5QJV7 1-422) MSSQVVGIEPLYIKAEPASPDSPKGSSETETEPPVTLASGPAPARCLPGHKEEEDGEGAGSGEQGSGKLVLSSLPKRLCLVCGDVASGYHYGVASCEACKAFFKRTIQGSIEYSCPASNECEITKRRRKACQACRFTKCLRVGMLKEGVRLDRVRGGRQKYKRRPEVDPLPFPGPFPAGPLAVAGGPRKTAPVNALVSHLLVVEPEKLYAMPDPASPDGHLPAVATLCDLFDREIVVTISWAKSIPGFSSLSLSDQMSVLQSVWMEVLVLGVAQRSLPLQDELAFAEDLVLDEEGARAAGLGDLGAALLQLVRRLQALRLEREEYVLLKALALANSDSVHIEDAEAVEQLREALHEALLEYEAGRAGPGGGAERRRAGRLLLTLPLLRQTAGKVLAHFYGVKLEGKVPMHKLFLEMLEAMMD | binds
3 | KANK2 (KN motif and ankyrin repeat domains 2) (protein, UniProt D3ZD05 1-847) MAQVLHVPAPFPGTPGQASSAAFPNKEPDPPYSVETPYGYRLDLDFLKYVDDIEKGHTLRRVPVQRRPRLGSLPRGPGSWWTSTESLCSDASGDSRHSAYSYCGRGFYPQYGALETRSGTNPRVERTLLDARRRLEDQAAAPSSGGLGSLTPSAAGSTSSLAGVGLLPPTPRSSGLSTPVAPSAGHLAHVREQMAGALRKLRQLEEQVKLIPVLQVKLSVLQEEKRQLTVQLKSQKFLGHPSGTRSRSELCLDLPEAPDDPAVLETRSVGTWVRERDLGIPDGEAALVAKVAVLETQLKKALQELRAAQTQQVDLQPQAWPPPDTQVRVDTVRVVEGPREVEVAASTAAGAPAQRAQSLEPYGAGLKALATSAENTLVFRSHEVVETMCPLPTASTSNMHTAKKISITERNCTGAARMADPPPSPAEPSPSSPYPAAEPENPAPAAQDTTDRELTRPVASQDSQAAEGAGGASLGVQSALKRKEVPADPDVHQRNLQFVGINGGYESSSEDSSTAENSEHESTENEAPEPPVRVLSTAEGPQLRPLGPAVGKTSQDERQLSQESQRVPEAKVAPGPDPEEEIRMDLSPDLISACLALEKYLENPNALTERELKVAYTTVLQEWLRLACRSDAHPELVRRHLVTFRAMSARLLDYVVNIADSNGNTALHYSVSHANFPVVRQLLDSGVCQVDKLNRAGYSPIMLTALATLKTQDDIDTILQLFRLGNVNAKASQAGQTALMLAVSHGRVDVVKALLACEVDVNMQDEDGSTALMCACEHGHKEITGLLLAVPSCDISLTDRDGSTALMVALDAGQSEIASMLYSRMNIKCSFAPMSDYESPASSSAEE | binds

The remaining lines, values ahead:

Row | binding | Molecule
4 | binds | transcriptional intermediary factor 1β (TIF1β) (from UniProt O08629 1-835)
5 | binds | ankyrin repeat domain 1 (ANKRD1) (from UniProt Q8R560 1-319)
6 | binds | PGC-1α (protein, UniProt Q9QYK2 1-796) MAWDMCSQDSVWSDIECAALVGEDQPLCPDLPELDLSELDVNDLDTDSFLGGLKWCSDQSEIISNQYNNEPANIFEKIDEENEANLLAVLTETLDSLPVDEDGLPSFDALTDGDVTTDNEASPSSMPDGTPPPQEAEEPSLLKKLLLAPANTQLSYNECSGLSTQNHANHTHRIRTNPAIVKTENSWSNKAKSICQQQKPQRRPCSELLKYLTTNDDPPHTKPTENRNSSRDKCASKKKSHTQPQSQHAQAKPTTLSLPLTPESPNDPKGSPFENKTIERTLSVELSGTAGLTPPTTPPHKANQDNPFKASPKLKPSCKTVVPPPTKRARYSECSGTQGSHSTKKGPEQSELYAQLSKSSVLSRGHEERKTKRPSLRLFGDHDYCQSVNSKTDILINISQELQDSRQLDFKDASCDWQGHICSSTDSSQCYLRETLEASKQVSPCSTRKQLQDQEIRAELNKHFGHPSQAVFDDKVDKTSELRDGNFSNEQFSKLPVFINSGLAMDGLFDDSEDENDKLSYPWDGTQSYSLFDVSPSCSSFNSPCRDSVSPPKSLFSQRPQRMRSRSRSFSRHRSCSRSPYSRSRSRSPGSRSSSRSCYYYESSHYRHRTHRNSPLYVRSRSRSPYSRRPRYDSYEANEHERLKRDEYRREYEKRESERAKQRERQKQKAIEERRVIYVGKIRPDTTRTELRDRFEVFGEIEECTVNLRDDGDSYGFITYRYTCDAFAALENGYTLRRSNETDFELYFCGRKQFFKSNYADLDSNSDDFDPASTKSKYDSLDFDSLLKEAQRSLRR

target: T2, PERM1 (PGC-1-, ERR-induced regulator, muscle 1) (mouse (endogenous in mouse heart)); experiment: co-IP; endogenous proteins from WT mouse heart lysate; immunoprecipitated with anti-PERM1 or anti-ERRα antibody, Protein A/G agarose; immunoblot

Row | binding | Molecule
7 | binds | Estrogen-Related Receptor Alpha (ERRα) (protein, UniProt O08580 1-422) MSSQVVGIEPLYIKAEPASPDSPKGSSETETEPPVTLASGPAPARCLPGHKEEEDGEGAGSGEQGSGKLVLSSLPKRLCLVCGDVASGYHYGVASCEACKAFFKRTIQGSIEYSCPASNECEITKRRRKACQACRFTKCLRVGMLKEGVRLDRVRGGRQKYKRRPEVDPLPFPGPFPAGPLAVAGGPRKTAPVNALVSHLLVVEPEKLYAMPDPASPDGHLPAVATLCDLFDREIVVTISWAKSIPGFSSLSLSDQMSVLQSVWMEVLVLGVAQRSLPLQDELAFAEDLVLDEEGARAAGLGDLGAALLQLVRRLQALRLEREEYVLLKALALANSDSVHIEDAEAVEQLREALHEALLEYEAGRAGPGGGAERRRAGRLLLTLPLLRQTAGKVLAHFYGVKLEGKVPMHKLFLEMLEAMMD
